{"sequences": {"note": "Chains of the proteins cited; added tags and fusions are not shown. Lines headed by an entry give the natural chain unless they say otherwise; changes in a name come on top.", "UniProt O00167": "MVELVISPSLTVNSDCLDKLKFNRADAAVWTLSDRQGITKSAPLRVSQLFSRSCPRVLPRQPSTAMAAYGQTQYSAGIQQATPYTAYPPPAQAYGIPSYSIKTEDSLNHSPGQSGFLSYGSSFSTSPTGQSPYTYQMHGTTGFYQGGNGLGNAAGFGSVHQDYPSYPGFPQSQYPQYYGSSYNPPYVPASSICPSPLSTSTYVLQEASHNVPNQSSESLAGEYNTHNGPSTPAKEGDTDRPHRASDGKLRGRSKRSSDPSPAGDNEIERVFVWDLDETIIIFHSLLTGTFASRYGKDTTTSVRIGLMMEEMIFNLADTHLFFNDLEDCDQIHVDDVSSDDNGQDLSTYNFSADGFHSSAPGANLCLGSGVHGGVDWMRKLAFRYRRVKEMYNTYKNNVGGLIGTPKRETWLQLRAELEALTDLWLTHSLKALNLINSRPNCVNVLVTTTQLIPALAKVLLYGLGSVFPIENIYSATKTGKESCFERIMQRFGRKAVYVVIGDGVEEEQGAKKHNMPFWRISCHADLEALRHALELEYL"}, "source": "PubChem BioAssay AID488837", "about": "(National Center for Advancing Translational Sciences (NCATS), 2010)", "note": "Screen size: about 330,000 compounds; about 20 (0.006%) were called active. Inconclusive means that the source gave no clear call. Such entries were picked first, then a sample of the others. The call rests on the fitted dose curve; in most records, active means well fitted inhibition curve with a large enough effect; inconclusive means small, poorly fitted or top-dose-only effect, or effect the other way; inactive means flat fitted curve, though single readings scatter. Where the call is inconclusive, the potency comes from a doubtful curve fit. On the % scale 0 is the no-effect control and ±100 the full control effect; potency means the concentration at half of the fitted maximal effect.", "data": [{"target": "Protein phosphatase EYA2 (Homo sapiens) (UniProt O00167)", "assay": "qHTS Assay for Inhibitors of the Phosphatase Activity of Eya2", "settings": "recombinant Eya2, OMFP fluorescence dephosphorylation (OMFP is methylfluorescein phosphate); activity, negative = inhibition: at 76.9 µM (top of the series) unless noted", "summary_of_the_method": "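Eya2 (0.2 uM) preincubated 10 min at ambient with compound, then OMFP substrate added at 50 uM; 10 min reaction in 50 mM HEPES pH 7.5, 50 mM NaCl, 5 uM MgCl2, 0.05% BSA, 1 mM DTT. Fluorescence read at Ex 485/Em 525 nm.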", "values": [{"molecule": "CC1=Nc2ccc(C)cc2/C1=C/c1c(N)n2oc(C)cc2nc1=O", "Potency": "inconclusive: 251 µM [inhibitor, partial curve]"}, {"molecule": "O=C(NNC(=S)Nc1ccc(Cl)cc1)c1cccs1", "activity, negative = inhibition": "inactive: 2.95%"}, {"molecule": "O=C(/C=C/c1ccccc1)c1ccc2c(c1)OCCCCO2", "Potency": "inconclusive: 79.4 µM [inhibitor, single point]"}, {"molecule": "CN(Cc1nc2ccccc2c(=O)[nH]1)C(=O)c1cccc(S(=O)(=O)N2CCCCCC2)c1", "Potency": "inconclusive: 100 µM [inhibitor, single point]"}, {"molecule": "CCCCNCC1CCCO1", "note": "(stereo unspecified)", "Potency": "inconclusive: 398 µM [inhibitor, single point]"}, {"molecule": "OC(CNCc1ccc2c(c1)OCO2)COc1ccc(F)cc1", "note": "(stereo unspecified)", "Potency": "inconclusive: 126 µM [inhibitor, single point]"}, {"molecule": "COCCCNC(=O)c1c(N)n(-c2ccc(S(N)(=O)=O)cc2)c2nc3ccccc3nc12", "activity, negative = inhibition": "inactive: 1.18%"}, {"molecule": "COc1cccc(-c2cc(C(F)(F)F)nc(-n3cc(Cl)cn3)n2)c1", "activity, negative = inhibition": "inactive: -22.7%"}, {"molecule": "O=C(CCN1CCOCC1)c1ccc2c(c1)OCCO2", "activity, negative = inhibition": "inactive: 6.24%"}, {"molecule": "CCN(CC)CCCNC(=O)c1ccc(CS(=O)(=O)c2ccccc2OC)o1", "Potency": "inconclusive: 112 µM [inhibitor, single point]"}, {"molecule": "C=CCN(C(=O)CCC(=O)Nc1cc(C)on1)C(C(=O)NC(C)(C)CC)c1cccc(OC)c1OC", "note": "(stereo unspecified)", "Potency": "inconclusive: 200 µM [inhibitor, partial curve, poor fit]"}, {"molecule": "CSC1=NSC2=NC(=O)/C(=C/c3coc4ccc(O)cc4c3=O)C(=N)N12", "activity, negative = inhibition": "inconclusive: 54% [activator]"}, {"molecule": "Clc1ccc(C2CC(c3cccs3)n3ncnc3N2)cc1", "note": "(stereo unspecified)", "Potency": "inconclusive: 100 µM [inhibitor, single point]"}, {"molecule": "CN1C(=O)N(CC(=O)NCc2ccc(Cl)cc2Cl)C(=O)C12CCCCC2", "Potency": "inconclusive: 22.4 µM [inhibitor, single point]"}, {"molecule": "Cn1c(SCC(=O)N/N=C/c2ccc(O)c(O)c2)nc2ccccc21", "Potency": "inconclusive: 89.1 µM [inhibitor, single point]"}, {"molecule": "COc1nc(-c2cnccn2)sc1C", "Potency": "inconclusive: 1000 µM [inhibitor, partial curve, poor fit]"}, {"molecule": "Nc1cc(C(=O)O)c(N)c2c1C(=O)c1ccccc1C2=O", "Potency": "inconclusive: 89.1 µM [inhibitor, single point]"}, {"molecule": "Cc1c2cnn(CC(=O)NCCCN3CCCCC3C)c(=O)c2c(C)n1Cc1ccccc1", "note": "(stereo unspecified)", "Potency": "inconclusive: 17.8 µM [inhibitor, single point]"}, {"molecule": "COc1ccccc1/C=C1\\SC(=S)N(C(C(=O)O)c2ccccc2)C1=O", "note": "(stereo unspecified)", "Potency": "inconclusive: 25.1 µM [inhibitor, single point]"}, {"molecule": "Cc1ccnc(SCC(=O)Nc2oc(-c3ccccc3)c(-c3ccccc3)c2C#N)n1", "Potency": "inconclusive: 28.2 µM [inhibitor, partial curve]"}, {"molecule": "COc1ccccc1-c1sc2cc3c(cc2c1-c1ccc2c(c1)OCO2)OCO3", "activity, negative = inhibition": "inactive: -2.51%"}, {"molecule": "COc1ccccc1CN1CC(C(=O)N(C)Cc2ccncc2C)CCC1=O", "note": "(stereo unspecified)", "activity, negative = inhibition": "inactive: 4.9%"}, {"molecule": "Cc1ccc(C(=O)O)cc1Nc1ncnc2sc3c(c12)CCC3", "Potency": "inconclusive: 100 µM [inhibitor, single point]"}, {"molecule": "C[C@@H]1CN([C@@H](C)CO)C(=O)Cc2cc(NC(=O)Nc3ccc(F)cc3)ccc2O[C@@H]1CN(C)Cc1ccc(Cl)c(Cl)c1", "Potency": "inconclusive: 50.1 µM [inhibitor, single point]"}, {"molecule": "C=CCNC(=S)N1CCN(c2ccccc2Cl)CC1", "Potency": "inconclusive: 100 µM [inhibitor, single point]"}, {"molecule": "Cc1ccc(S(=O)(=O)Nc2cccc(-c3ccc4nnc(C)n4n3)c2)s1", "Potency": "inconclusive: 17.8 µM [inhibitor, single point]"}, {"molecule": "O=C(COC(=O)c1ccccc1)Nc1ccccc1Br", "Potency": "inconclusive: 1410 µM [inhibitor, partial curve, poor fit]"}, {"molecule": "Cc1ccc(NC(=O)c2ccccc2F)nc1", "activity, negative = inhibition": "inactive: -2.69%"}, {"molecule": "CC(C)(C)c1ccc(C2=CSC3=NCCN23)cc1", "Potency": "inconclusive: 22.4 µM [inhibitor, single point]"}, {"molecule": "CC1CCC(NC(=O)Cn2c3c(c(-c4ccccc4Cl)cc2=O)CCC3)CC1", "note": "(stereo unspecified)", "Potency": "inconclusive: 14.1 µM [inhibitor, single point]"}, {"molecule": "Nc1nc(=S)c2ncn(C3CCCC3)c2[nH]1", "Potency": "inconclusive: 100 µM [inhibitor, single point]"}, {"molecule": "COc1ccccc1NS(=O)(=O)c1cccc(NC(=O)c2[nH]c(C)c(C(C)=O)c2C)c1", "Potency": "inconclusive: 100 µM [inhibitor, single point]"}, {"molecule": "Cc1cccc(C(=O)NCCNC(=O)c2cccnc2)c1", "Potency": "inconclusive: 25.1 µM [inhibitor, single point]"}, {"molecule": "COc1ccc(-n2cccc2/C=C/[N+](=O)[O-])cc1", "activity, negative = inhibition": "inactive: 5.29%"}, {"molecule": "CCOC(=O)c1ccc(NC2=CC(=O)C(=O)c3ccccc32)cc1", "activity, negative = inhibition": "inactive: -2.84%"}, {"molecule": "Cc1cc(C)nc(SCc2ccc(C(=O)N/N=C/c3ccccn3)cc2)n1", "Potency": "inconclusive: 178 µM [inhibitor, partial curve, poor fit]"}, {"molecule": "COc1ccccc1N1CCN(C(=O)c2ccc3nc(-c4ccco4)c(-c4ccco4)nc3c2)CC1", "activity, negative = inhibition": "inactive: 0.11%"}, {"molecule": "O=C(CC1SC(=O)N(c2ccccc2)C1=O)Nc1cccc2ccccc12", "note": "(stereo unspecified)", "Potency": "inconclusive: 100 µM [inhibitor, single point]"}, {"molecule": "C=CCN1N=C(/C=C/c2ccccc2)CCC1=O", "Potency": "inconclusive: 100 µM [inhibitor, single point]"}, {"molecule": "O=C(NC(NC(=S)Nc1ccc(Cl)c(Cl)c1)C(Cl)(Cl)Cl)c1ccco1", "note": "(stereo unspecified)", "activity, negative = inhibition": "inactive: -0.0154%"}, {"molecule": "Cc1cccc(NC(=O)CNC(=O)CSc2ncccn2)c1C", "activity, negative = inhibition": "inactive: 4.64%"}, {"molecule": "COc1ccc(CCC(C)NCc2ccc(Cl)c(Cl)c2)cc1", "note": "(stereo unspecified)", "activity, negative = inhibition": "inactive: -1.17%"}, {"molecule": "O=C(N/N=C/c1cc(Cl)cc([N+](=O)[O-])c1O)c1ccc2c(c1)OCO2", "activity, negative = inhibition": "inactive: -3.11%"}, {"molecule": "COc1cc(-c2nnc(-c3ccc(S(=O)(=O)c4ccccc4)cc3)o2)cc(OC)c1OC", "activity, negative = inhibition": "inactive: -11.4%"}, {"molecule": "CN(Cc1ccccc1)C(=O)CN1C(=O)c2ccc([N+](=O)[O-])cc2C1=O", "Potency": "inconclusive: 100 µM [inhibitor, single point]"}, {"molecule": "C=CCOc1cccc(CNc2cccc(C(=O)O)c2)c1", "Potency": "inconclusive: 100 µM [inhibitor, single point]"}]}]}
